Holding throughout (assay type): cell-based
What all share (conditions): single replicate

Chains of the proteins cited; added tags and fusions are not shown.
UniProt Q96LA9, whole entry, stated change not applied: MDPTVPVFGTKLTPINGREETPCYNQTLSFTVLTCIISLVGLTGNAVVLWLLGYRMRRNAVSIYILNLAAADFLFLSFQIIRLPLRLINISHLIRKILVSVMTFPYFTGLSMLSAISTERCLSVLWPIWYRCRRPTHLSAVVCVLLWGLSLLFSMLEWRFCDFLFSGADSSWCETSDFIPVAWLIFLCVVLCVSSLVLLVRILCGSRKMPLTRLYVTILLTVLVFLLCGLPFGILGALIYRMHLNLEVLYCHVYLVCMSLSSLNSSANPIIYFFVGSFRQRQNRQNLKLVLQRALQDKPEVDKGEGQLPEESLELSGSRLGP
UniProt Q96LA9, whole entry L83S: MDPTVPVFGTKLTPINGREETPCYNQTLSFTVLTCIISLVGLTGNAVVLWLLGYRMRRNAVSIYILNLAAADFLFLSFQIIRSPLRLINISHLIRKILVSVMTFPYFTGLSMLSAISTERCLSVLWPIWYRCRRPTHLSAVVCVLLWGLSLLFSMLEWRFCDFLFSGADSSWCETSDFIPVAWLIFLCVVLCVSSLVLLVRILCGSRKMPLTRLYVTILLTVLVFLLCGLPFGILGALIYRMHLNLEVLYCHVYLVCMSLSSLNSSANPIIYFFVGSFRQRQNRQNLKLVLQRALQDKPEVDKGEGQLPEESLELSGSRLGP

Test [1] concerns the target T1, MRGPRX4 S83L (L83) (Homo sapiens, UniProt Q96LA9). The test is described as follows: PRESTO-Tango β-arrestin recruitment assay, HTLA cells stably expressing S83L MRGPRX4. The method, then:
HTLA cells, a cell line derived from HEK293 and engineered to stably express a tTA-dependent luciferase reporter and a β-arrestin2-TEV fusion gene, were generously provided by Richard Axel's laboratory. HTLA cells were cultured in growth medium containing 2 μg/ml puromycin and 100 μg/ml hygromycin B in 5% CO2 at 37 °C. Stably MRGPRX4-expressing HTLA cells were generated by transfecting pcDNA3.1(+)-Zeo containing MRGPRX4-Tango construct (either with WT or S83L mutant sequence) into HTLA cells with Lipofectamine 3000 and selecting the successful transfected clones with Zeocin.
HTLA cells stably expressing either WT or S83L MRGPRX4 were seeded in PDL-coated 96-well white clear bottom cell culture plates with DMEM containing 10% FBS, at a density of 35,000 cells per well and were allowed to attach to the bottom of the wells overnight. The next day, growth medium was replaced with 100 μl of serum-free medium containing the tested drugs at various concentrations, and the cells were then incubated at 37°C for 24 h. On the following day, media with drug solutions was removed and 50 μl per well of Bright-Glo™ Reagent from Bright-Glo™ Luciferase Assay System (Promega) was loaded. The plate was incubated at room temperature in the dark for 5 min, and the relative luminescence units were measured using the Flexstation-3 instrument with SoftMax®Pro 7.1 software (Molecular Devices). Dose response curves and EC50s were analyzed as described above.
MRGPRX4 by β-arrestin (Tango) recruitment assay. Data are from three independent experiments,
performed in triplicate, and depicted as mean ± SEM.

For test [2], the target named is T1, MRGPRX4 S83L (L83). The test is described as follows: Calcium mobilization assay (FLIPR), S83L MRGPRX4 transiently expressed in HEK293T cells. More on the design: expressed in transfected cells; host or cells: HEK293T, transient. The text has this:
(§1) Fig. 4. […] Hydrogen bond is shown as cyan dashed lines. […] Data are from three independent experiments, performed in triplicate. (E) pEC50 plots of various agonists toward S83- and L83-MRGPRX4 through calcium mobilization assay. […] Each data point represents an independent experiment, performed in triplicate. The extra sum-of-square F test was used to examine the difference in EC50 values. One-sided t-test was used for nateglinide. *p< 0.05, **p< 0.01 and ***p< 0.001. ns = no statistical significance. Both (D) and (E) are reported as the mean ± SEM. N.D.= no detectable response ≤ 100 μM.
(§2) HEK293 cells and MRGPRX4 stably expressed HEK293 cells were seeded in 100 μl culture media on 96-well plates at a density of 40,000 cells per well and incubated overnight. The next day, the media were replaced with a dye-loading solution from the FLIPR Calcium 5 assay kit (Molecular Devices), diluted in Hank's Balanced Salt Solution (HBSS) with 20 mM HEPES, pH 7.4. After 1 h of incubation at 37°C, cells were allowed to recover for 10 min in the dark at room temperature prior to performing intracellular calcium mobilization assay in a Flexstation-3 instrument with SoftMax®Pro 7.1 software (Molecular Devices). Serial concentrations of tested drugs were prepared in HBSS/HEPES solution at 3X concentration. […] Compounds were tested in triplicates and the signals were averaged. Responses were determined by subtracting the minimum signal (at the baseline before adding the drug) from the maximum signal (obtained after drug stimulation). Four-parameter logistic (4PL) curve fit was used to plot the dose-response curves. […] Both dose-response curve fitting and EC50s calculation are computed with GraphPad Prism software (version: 6.o or above).
(§3) To generate murine Mrgprs expressing cells, HEK293T cells (ATCC) were seeded on poly-D-lysine coated 96 well plate at 25,000 cells per well one day prior to transfection. HEK293T cells were transiently co-transfected with the mammalian expression plasmids carrying cDNA encoding the murine Mrgpr genes and plasmid inserted with cDNA encoding murine α-subunit of the heterotrimeric G15 protein (Gα15) in triplicates using Lipofectamine LTX reagents (Thermo Scientific). To generate WT, S83L, and alanine mutant MRGPRX4-expressing cells, HEK293T cells were seeded on poly-D-lysine coated 384 well plate at 12,000 cells per well one day prior to transfection. Mammalian expression plasmids pLX304 (vector from Addgene) carrying different MRGPRX4 coding sequences were transiently transfected into HEK293T cells in triplicates with Lipofectamine LTX reagents (Thermo Scientific). Intracellular calcium mobilization assays were performed after one day of transfection. Murine Mrgprs tested include Mrgpra1, Mrgpra2a, Mrgpra2b, Mrgpra3, Mrgpra4, Mrgpra6, Mrgpra9, Mrgpra10, Mrgpra11, Mrgpra12, Mrgpra14, Mrgprb5, Mrgprb6, Mrgprb10, Mrgprb11, and Mrgprc11. WT and mutant MRGPRX4 constructs tested include WT, S83L, R82A, R86A, R95A, W158A, Y250A, and Y254A.

The target of a further test is MRGPRX4 WT (S83) (Homo sapiens, UniProt Q96LA9, L83S). The test is described as follows: Calcium mobilization assay (FLIPR), WT (S83) MRGPRX4 transiently expressed in HEK293T cells. Also noted: expressed in transfected cells; host or cells: HEK293T, transient.
From the text: as §1, §2, §3

Values joined by “and” are separate entries in the source; they are usually repeats but may differ in a detail not shown here. Equal values may be shown once. This continues a long series; more values of the same kind are listed elsewhere.

Regarding `CC(C)c1cccc(C(C)C)c1OCOP(=O)(O)O` [Fospropofol], the “fig. S7 response (raw signal), concentration-response” value on MRGPRX4 S83L (L83) [1] (1.95e-8 M) was 14520.1 and 8567.12 and 9483.12 and 17760.9 and 17957.2 and 14106.7 and 18248.8 and 16344.1; at MRGPRX4 S83L (L83) [1] (3.91e-8 M), 10747.5 and 10454.1 and 12552.8 and 13100.5 and 20055.9 and 18705.8 and 15801.3 and 16275.7 and 13807; on MRGPRX4 S83L (L83) [1] (7.81e-8 M), 14946.2 and 9294.34 and 13417.8 and 19898.6 and 30205.8 and 30243.6 and 23582.8 and 20002.4 and 22818; at MRGPRX4 S83L (L83) [1] (1.56e-7 M), 20632.5 and 18156.2 and 27308.9 and 50626.6 and 60480.9 and 43086.1 and 41288.7 and 36240.3 and 40252.6; on MRGPRX4 S83L (L83) [1] (3.13e-7 M) it was 28782.5 and 29429.3 and 28436.7 and 111762 and 113697 and 111782 and 49525.7 and 41279.2 and 53368; on MRGPRX4 S83L (L83) [1] (6.25e-7 M) it was 56396.3 and 60357.7 and 54431.5 and 266530 and 254615 and 266759 and 98954.5 and 110732 and 101355. Moreover, the “fig. S7 response (raw signal), concentration-response” value was 117485 and 143864 and 127914 and 530753 and 489488 and 488203 and 214593 and 203880 and 189396 on MRGPRX4 S83L (L83) [1] (1.25e-6 M); 283549 and 253268 and 251790 and 906014 and 876206 and 872479 and 401910 and 375325 and 347600 on MRGPRX4 S83L (L83) [1] (2.5e-6 M); 407540 and 468206 and 450720 and 1355419 and 1286075 and 1270466 and 563135 and 473189 and 565467 at MRGPRX4 S83L (L83) [1] (5e-6 M); 570843 and 633653 and 614122 and 1590075 and 1551545 and 1573880 and 728467 and 709998 and 669765 on MRGPRX4 S83L (L83) [1] (1e-5 M); 570426 and 578197 and 639667 and 1791802 and 1676170 and 1671132 and 592554 and 598891 and 664858 at MRGPRX4 S83L (L83) [1] (2e-5 M).
For `C[C@]12CC3CC(C(=O)N[C@H](Cc4ccccc4)C(=O)O)(C1)C[C@@](C)(C3)C2` [MS47134], the “fig. S8 response (normalized), concentration-response” value (“fig. S8 response (normalized)” below) on MRGPRX4 S83L (L83) [2] (188.2 pM) is 2.444 and 6.228 and -10.8002 and -2.332 and 0.5102 and 0.2915 and 11.1877 and 5.351 and 0.4864; at MRGPRX4 S83L (L83) [2] (564.5 pM), 8.356 and 6.464 and -2.996 and 1.6035 and 2.697 and -11.516 and 8.269 and 0.9728 and -3.891; at MRGPRX4 S83L (L83) [2] (1.69351e-9 M), 6.228 and 7.41 and 6.464 and -1.895 and 5.758 and -4.956 and 14.8358 and 11.4309 and -3.648; at MRGPRX4 S83L (L83) [2] (5.08053e-9 M) it was 11.9038 and 4.336 and -7.016 and 3.353 and 3.571 and 0.2915 and 13.1334 and 3.648 and 2.4321; on MRGPRX4 S83L (L83) [2] (1.52416e-8 M), 5.991 and 6.937 and 5.518 and 5.977 and 3.134 and 9.475 and 16.0519 and 9.972 and 1.702; on MRGPRX4 S83L (L83) [2] (4.57247e-8 M) it was 18.7623 and 8.829 and 9.302 and 12.0991 and 12.3178 and 8.819 and 27.2396 and 13.1334 and 13.6198. Further, the “fig. S8 response (normalized)” value on MRGPRX4 S83L (L83) [2] (1.37174e-7 M) was 36.7363 and 35.3173 and 49.2708 and 38.9942 and 36.1516 and 47.0846 and 59.5865 and 54.2359 and 44.7507; at MRGPRX4 S83L (L83) [2] (4.11523e-7 M), 68.9003 and 70.3193 and 66.0623 and 59.3295 and 70.481 and 70.2624 and 89.7446 and 71.0174 and 72.4767; at MRGPRX4 S83L (L83) [2] (1.23457e-6 M), 80.7253 and 87.1108 and 108.396 and 80.758 and 79.2274 and 77.0408 and 109.201 and 100.689 and 83.9076; at MRGPRX4 S83L (L83) [2] (3.7037e-6 M), 102.72 and 125.187 and 116.673 and 83.8192 and 113.12 and 118.586 and 122.335 and 108.229 and 112.606; on MRGPRX4 S83L (L83) [2] (1.11111e-5 M) it was 106.74 and 105.321 and 99.6453 and 104.592 and 97.5948 and 94.7522 and 142.764 and 124.767 and 113.336; on MRGPRX4 S83L (L83) [2] (3.33333e-5 M), 111.707 and 102.483 and 84.0363 and 105.466 and 103.499 and 94.9708 and 102.878 and 86.3397 and 75.152. Moreover, the “fig. S8 response (normalized)” value on MRGPRX4 S83L (L83) [2] (0.0001 M) is 90.1853 and 100.828 and 110.761 and 96.2828 and 93.4402 and 106.341 and 128.901 and 111.877 and 94.8521; at MRGPRX4 WT (S83) (188.2 pM), 13.5387; on MRGPRX4 WT (S83) (564.5 pM), 4.54; at MRGPRX4 WT (S83) (1.69351e-9 M) it was 19.8622; at MRGPRX4 WT (S83) (5.08053e-9 M) it was 23.2671; at MRGPRX4 WT (S83) (1.52416e-8 M) it was 17.6733. For the same compound, the “fig. S8 response (normalized)” value at MRGPRX4 WT (S83) (4.57247e-8 M) was 15.2412 and 22.2943; on MRGPRX4 WT (S83) (1.37174e-7 M), 19.619 and 19.1325; on MRGPRX4 WT (S83) (4.11523e-7 M), 26.6721; on MRGPRX4 WT (S83) (1.23457e-6 M), 21.3214; on MRGPRX4 WT (S83) (3.7037e-6 M), 23.2671; on MRGPRX4 WT (S83) (1.11111e-5 M) it was 62.424. For the same compound, the “fig. S8 response (normalized)” value came out at 60.7215 at MRGPRX4 WT (S83) (3.33333e-5 M) and 57.5598 on MRGPRX4 WT (S83) (0.0001 M).

The values are drawn from paper PMC11645656, “MRGPRX4 mediates phospho-drug associated pruritus in a humanized mouse model” (Science translational medicine, 2024).
